# PubChem BioAssay AID1508587, Peter MacCallum Cancer Centre – 2020
# Aim: 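Knockdowns that add to vemurafenib's cut in melanoma glycolysis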 (follow-up of hits)
# Cell system: human WM266.4 melanoma cells with a BRAF V600 mutation
# Knock-down reagent: single siRNA against human genes, 25 nM
# Timing: 96 h
# Treatment: vemurafenib 300 nM (about IC25), given 48 h after transfection for 48 h
# Detection: 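Per-cell lactate from absorbance divided by DAPI nucleus counts, compared with and without vemurafenib, relative to non-targeting siRNA, mean of 2 replicates; nuclear counts also give cell number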
# Scale: lactate per cell, drug vs no drug: higher = less drug-induced drop in lactate per cell; lactate per cell with vemurafenib: higher = more lactate per cell under drug; lactate per cell without drug: higher = more lactate per cell without drug; cell growth with vemurafenib and cell growth without drug: higher = more cell growth over 48 h
# Active means: 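a duplex is active when its lactate-per-cell ratio with versus without drug falls under 0.55, i.e. 2 SD below non-targeting; a gene is confirmed if 2 or more of 4 duplexes pass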
# The deposit covers about 1,600 reagents; below is a random part of them. 623 of all reagents (39%) count as active. 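Calls are for each duplex; lactate ratios contain extreme outliers.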 Reagents against one gene are numbered here.
gene knocked down,siRNA no.,"lactate per cell, drug vs no drug",lactate per cell with vemurafenib,lactate per cell without drug,cell growth with vemurafenib,cell growth without drug,Call
FAM217B,1,0.68,2.04,2.14,0.2,0.29,inactive
FAM217B,2,0.76,2.39,2.25,0.27,0.27,inactive
FAM217B,3,0.56,1.14,1.44,0.86,0.62,inactive
FAM217B,4,0.68,1,1.06,1,0.93,inactive
ING3,1,0.43,0.72,1.15,-0.04,0.06,active
ING3,2,0.34,0.24,0.5,-0.13,0.19,active
ING3,3,0.42,0.87,1.43,0.17,0.15,active
ING3,4,0.57,1.84,2.21,0.09,0.11,inactive
IPO9,1,0.71,1.55,1.43,0.1,0.15,inactive
IPO9,2,0.53,1.14,1.41,0.14,0.22,active
IPO9,3,0.52,0.96,1.18,-0.04,0.28,active
IPO9,4,0.73,0.96,0.86,0.93,1.27,inactive
PARVA,1,0.61,1.42,1.62,0.33,0.23,inactive
PARVA,2,0.5,0.7,0.94,0.43,0.22,active
PARVA,3,0.86,1.37,1.12,-0.04,0.06,inactive
PARVA,4,0.54,0.94,1.17,1.06,0.57,active
HPS4,1,0.88,1.04,0.78,0.26,0.76,inactive
HPS4,2,0.46,2.62,3.75,-0.02,-0.02,active
HPS4,3,0.76,1.12,0.97,0.63,0.87,inactive
HPS4,4,0.44,0.7,1.04,0.55,0.75,active

A few values from the entries so far:
PARVA #2, lactate per cell without drug: 0.94
Result for HPS4 #2 in “lactate per cell with vemurafenib”: 2.62
